Test results published in doi:10.1101/2025.01.09.632146.
No constants are given. Whether binding was seen depends on the method and setting. A result given as binding can be weak or reduced; the word gives no strength. For some assays here: Binding seen in cells or lysates may run through a third protein.

Sequences of proteins named here, by UniProt entry; tags and fusion partners are left off. A change or cut given only in a name is not applied to a line headed by its entry.
UniProt O04834: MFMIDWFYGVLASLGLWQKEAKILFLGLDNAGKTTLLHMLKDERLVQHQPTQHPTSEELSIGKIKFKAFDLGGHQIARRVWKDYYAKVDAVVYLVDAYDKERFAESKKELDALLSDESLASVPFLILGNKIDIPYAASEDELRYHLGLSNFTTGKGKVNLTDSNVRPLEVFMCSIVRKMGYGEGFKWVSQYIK

B1: S10-AtPHF1 N (domain or fragment, UniProt Q8GYE0 1-337)
chain: MEIEEASRESGHVVCGSWIRRPKKVNWVLIAKASKRRGSSVSSPALLNIFSFDPITASLSSSPLATHTLKDSDGDPVAVSVHPGGDYFVCSTSKGGCKLFELVGGATGITILAKELLPLQNAGLQKCMAFSFDGSKLAVGGVDGCLRIMEWPNLSVILDEPKAHKSIRDMDFSLDSEFLATTSTDGSARIWKAEDGFPLSTLERSGDENIELCRFSKDGTKPFLFCAAQRGDTPMVNVYDISTWKKLGFKKLSRKTASTMAVSLDGKYIALGGKDGDVSVAEVKTMEIYHYSKRLHLGQSIASLEFCPSERVMLTTSSEWGEMVTKLTVPKEWKEWQ

Columns and labels:
[1] = molecular target: T1, AtPHT1;1-CubPLV (Arabidopsis thaliana) (UniProt Q8VYM2); test: two-hybrid
T1 sequence: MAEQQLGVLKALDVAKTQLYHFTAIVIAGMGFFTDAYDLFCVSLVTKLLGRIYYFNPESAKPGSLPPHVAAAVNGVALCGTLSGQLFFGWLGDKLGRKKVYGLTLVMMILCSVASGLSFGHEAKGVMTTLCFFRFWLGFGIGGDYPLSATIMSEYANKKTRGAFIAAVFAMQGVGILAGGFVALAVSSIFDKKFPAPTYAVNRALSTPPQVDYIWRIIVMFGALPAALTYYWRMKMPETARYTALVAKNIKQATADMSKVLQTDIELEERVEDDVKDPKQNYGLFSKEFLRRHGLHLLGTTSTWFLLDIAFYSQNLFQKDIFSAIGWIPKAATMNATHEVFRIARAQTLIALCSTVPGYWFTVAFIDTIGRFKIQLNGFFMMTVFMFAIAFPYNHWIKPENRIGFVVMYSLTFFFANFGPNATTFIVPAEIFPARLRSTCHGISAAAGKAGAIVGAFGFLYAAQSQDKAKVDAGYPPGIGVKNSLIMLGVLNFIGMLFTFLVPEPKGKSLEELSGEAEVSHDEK

[2] = molecular target: AtSAR1c-S11 (Arabidopsis thaliana) (UniProt O04834); test: split reporter

Row | Molecule | binding [1] | binding [2]
1 | AtSAR1c-NubG (from UniProt O04834) | binds | 
2 | B1 |  | binds
